The values that follow come from patent US20250026841A1.

In assay [1] the target is T1, peptides with the consensus motif KFPDE (SEQ ID NO:96).
T1 sequence (peptide): KFPDE
In words: linear peptide microarray, spot intensities.

The target is the same in assay [2]. In words: linear peptide microarray, antibody at 1 µg/ml.

These are yes or no findings as the source states them, for the method shown. Some entries that bind do so weakly or less than the wild type.

B1: anti-p95HER2 antibody clone R4-11 (antibody, human IgG1, kappa, V domains shown)
VH: QITLKESGPTLVKPTQTLTLTCTFSGFSLSTSGVGVGWIRQPPGKALEWLALIYWDDDKRYSPSLKSRLTITKDTSKNQVVLTMTNMDPVDTATYYCAHAHPFSGSYNFWGQGTLVTVSS
VL: DIVMTQSPDSLAVSLGERATINCKSSQSVLFSSNNKDYLAWYQQRPGQPPKLLIHWASTREPGVPDRFSGSGSGTDFTLTISSLQAEDVAVYYCLQSYSNPPTFGQGTKVEIKR
On to B1, for which the binding result in assay [1] and in assay [2] was “binds” throughout.

B2: anti-p95HER2 antibody clone R4-15 (antibody, human IgG1, V domains shown)
VH: QITLKESGPTLVKPTQTLTLTCTFSGFSLSSGGVGVGWIRQPPGKALEWLALIYWDDDKRYSPSLKSRLTITKDTSKKQVVLTMTNMDPVDTATYYCAHLDYPENYFDQWGQGTLVTVSS
VL: DIQMTQSPSSLSASVGDRVTFTCRASQSISTYLNWYQQKPGKAPKLLIYAASTLQSGVPSRFSGSGSGTDFTLAISSLQPEDFATYFCQQSYSFPTFGQGTRLEIKR
B2: the binding result in assay [1] and in assay [2] was “binds” each time.

B3: anti-p95HER2 antibody clone R4-5 (antibody, human IgG1, kappa, V domains shown)
VH: QITLKESGPALVKPTQTLTLTCTFSGFSLSTSGVGVGWIRQPPGKALEWLALIYWDDDKRYSPSLKSRLTITKDTSKNQVVLTMTNMDPVDTATYYCAHSRLPYNSHGYWGQGTTVTVSS
VL: DIQMTQSPSSLSASVGDRVTITCQASQAIGNYLSWYQQKPGRAPKLLIYAASTLHSGVPSRFSGSGSGTDFTLTITSLQPDDFATYYCQQSYSVPVTFGLGTKLEIKR
For B3, the binding result in assay [1] and in assay [2] was “binds” in each case.
